Source: patent publication US20160046678A1 (ZYNGENIA, published 2016)
These are yes or no findings as the source states them, for the method shown. Some entries that bind do so weakly or less than the wild type.

What follows are binders tested against ErbB2 (UniProt P04626) (assay: MRD identification, Example 48).

Row | Binder | binding
1 | WSGWCETSKGWHFCSGII [EGB669] | binds
2 | PKYSCVYSIMKEKWHCRAQT [EGB670] | binds
3 | FKPHCVYKHQTWVCGPPA [EGB673] | binds
4 | THMHCYQHKHHYHCRTSL [EGB675] | binds
5 | GPELCHHMAGHEWCLRYY [EGB686] | binds
6 | HRSKCFMMYWDENCLQPW [EGB692] | binds
7 | LGGRCMLFALKQCSMGH [EGB693] | binds
8 | WSRLCTMRLPSTCGVWE [EGB696] | binds
9 | RSWHCSHQMGSKPHCVLSP [EGB697] | binds
10 | TWFRCTPHKHHYHCKHNV [EGB698] | binds
11 | GIWICRHDSPYMKPHCIFTS [EGB705] | binds
12 | TWSKCFMVPLGDYCTRAL [EGB707] | binds
13 | SVWKCVKHPFKIKPLCKLES [EGB708] | binds
14 | RTWFCEKMHGQKFHCVSWF [EGB710] | binds
15 | ADSWCHTLFWQLQHCVWQE [EGB712] | binds
16 | KWRCCYGQFQPACNAVS [EGB714] | binds
17 | PRYKCVFNWEVQKWQCSVWS [EGB716] | binds
18 | PNRYCYTYPHSVKCAWMY [EGB722] | binds
19 | DPSRCSKAYQMLYQCRTLI [EGB723] | binds
20 | STDLCWPHKKHWHCPPAN [EGB729] | binds
21 | SAWYCTKHMPQSKYHCISMR [EGB730] | binds
22 | KWWKCGVIFEICQIVP [EGB732] | binds
23 | AQLKCFEKLYMCRHHL [EGB738] | binds
24 | VDRVCQFFMQKCWSSP [EGB739] | binds
25 | KWTRCIPRMETHTCDCLL [EGB740] | binds

Row | Binder | binding
26 | KLPQCLWEWDNRDCRWLL [EGB746] | binds
27 | LHRFCDHFAIQCRFCN [EGB748] | binds
28 | LICKQHKNHWHCRNYY [EGB758] | binds
29 | KPWKCFYSYKIQHWKCHGVS [EGB763] | binds
30 | TDSWCHTLYWQLHHCAILE [EGB770] | binds
31 | KWRCCYGQFQQACNAVS [EGB771] | binds
32 | WTHACVVWNMKQMEACTSLT [EGB778] | binds
33 | LLNQCLQWAFHNCGCWN [EGB779] | binds
34 | WSGYCELKDRWAYCSGSI [EGB780] | binds
35 | HRAPCFSCTACRQPCFSLT [EGB781] | binds
36 | WSGYCEMKGYWAHCTGLI [EGB785] | binds
37 | WSGYCEFLDHWDHCSGGE [EGB786] | binds
38 | WSGYCEYKDHWDHCGSSV [EGB787] | binds
39 | WSGYCEYKDHWDYCGSSV [EGB788] | binds
40 | WSGYCEYKDHWDFCGNVD [EGB789] | binds
41 | WSGYCEYRDHWAHCGGSL [EGB791] | binds
42 | WSGYCEFEGYWAHCGGSI [EGB792] | binds
43 | WSGYCEYIDHWGYCQGSI [EGB795] | binds
44 | WSGYCEMNDHWDYCYGSI [EGB796] | binds
45 | WSGYCEYKDHWGYCGGSI [EGB798] | binds
46 | WSGYCQLMDHWDYCHGQG [EGB799] | binds
47 | WSGYCEMTDHWAHCSGSH [EGB802] | binds
48 | WSGYCEFEDHWDYCHGSV [EGB803] | binds
49 | WSGYCEMKDHWAHCGGLI [EGB805] | binds
50 | WSGYCEFKDHWDYCHGSV [EGB806] | binds
